These results are taken from PMC3890319, “Role of Receptor Activity Modifying Protein 1 in Function of the Calcium Sensing Receptor in the Human TT Thyroid Carcinoma Cell Line” (PLoS ONE, 2014).

Sequences of proteins named here, by UniProt entry; tags and fusion partners are left off. Residues count along the entry.
UniProt O60895, residues 43-175: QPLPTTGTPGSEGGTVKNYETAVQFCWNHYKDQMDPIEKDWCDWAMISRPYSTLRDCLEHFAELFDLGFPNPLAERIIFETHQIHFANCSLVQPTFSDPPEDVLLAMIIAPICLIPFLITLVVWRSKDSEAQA

Results are given in words; binding and its absence hold for the method and conditions named. Binding seen in cells or lysates may run through a third protein. Tags and fused reporters may be left off the sequences shown.

The target of this assay is T1, Calcium Sensing Receptor, C-terminal Citrine fusion (UniProt P41180).
T1 sequence: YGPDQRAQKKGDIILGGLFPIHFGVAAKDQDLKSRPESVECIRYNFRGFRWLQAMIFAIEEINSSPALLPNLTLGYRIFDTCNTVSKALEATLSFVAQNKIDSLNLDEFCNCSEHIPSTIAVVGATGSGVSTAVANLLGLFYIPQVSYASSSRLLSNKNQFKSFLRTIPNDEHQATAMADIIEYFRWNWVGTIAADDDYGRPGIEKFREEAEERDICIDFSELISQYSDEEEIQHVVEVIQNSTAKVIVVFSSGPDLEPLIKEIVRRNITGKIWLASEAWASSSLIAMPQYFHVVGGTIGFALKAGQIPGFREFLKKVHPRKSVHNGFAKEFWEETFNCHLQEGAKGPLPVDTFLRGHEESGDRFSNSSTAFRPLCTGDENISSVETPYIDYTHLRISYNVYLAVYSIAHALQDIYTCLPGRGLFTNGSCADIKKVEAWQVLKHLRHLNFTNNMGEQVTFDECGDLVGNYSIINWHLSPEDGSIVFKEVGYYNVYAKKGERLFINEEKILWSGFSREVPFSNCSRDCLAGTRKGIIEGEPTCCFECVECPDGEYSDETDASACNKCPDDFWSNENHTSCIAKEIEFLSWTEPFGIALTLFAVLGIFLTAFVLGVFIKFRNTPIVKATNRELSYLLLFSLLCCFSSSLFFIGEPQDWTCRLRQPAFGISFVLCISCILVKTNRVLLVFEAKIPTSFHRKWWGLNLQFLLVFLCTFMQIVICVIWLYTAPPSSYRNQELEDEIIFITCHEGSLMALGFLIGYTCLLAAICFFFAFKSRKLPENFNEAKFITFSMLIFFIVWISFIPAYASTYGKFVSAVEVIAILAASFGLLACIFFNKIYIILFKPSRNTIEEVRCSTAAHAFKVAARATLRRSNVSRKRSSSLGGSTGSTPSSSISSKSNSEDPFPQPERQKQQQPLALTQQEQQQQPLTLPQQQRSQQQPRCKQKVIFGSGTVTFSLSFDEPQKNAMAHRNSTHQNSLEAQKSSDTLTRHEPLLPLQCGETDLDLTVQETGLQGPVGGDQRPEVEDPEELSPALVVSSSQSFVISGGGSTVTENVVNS
Nature of the assay: FRET or BRET; sensitized-emission FRET (NFRET, PixFRET) and FRET-based stoichiometry in cell-surface regions of interest (50-pixel dots) of fixed COS-7 cells co-transfected with CaSR-Citrine (acceptor) and RAMP-Cerulean (donor); confocal microscopy at room temperature; NFRET as percent of a Cerulean-linker-Citrine positive control; negative control Citrine alone + RAMP-Cerulean. On the technique in general: Bioluminescence resonance energy transfer reports proximity on the nanometre scale.

With “Receptor Activity Modifying Protein 2, C-terminal Cerulean fusion (from UniProt O60895 43-175)”, the binding entry was “no binding”.
